Measurements reported in PubChem BioAssay AID686938 (Drosophila RNAi Screening Center, 2013).
Aim: 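Knock-downs reducing store-operated calcium influx in Drosophila cells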 (primary screen). Cell system: Drosophila S2R+ cells. Reagents: long dsRNA against Drosophila genes, about 0.25 µg dsRNA per well, roughly 10,000 cells. Duration: 5 days of knock-down before the calcium assay. Challenge: thapsigargin (SERCA pump blocker) to empty calcium stores; entry signal taken 4 min after adding it. Read-out: 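Duplicate raw fluo-4 intensities per well from a plate reader, at rest and four minutes after thapsigargin emptied calcium stores; entry-to-rest ratio filled for only some wells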. Scale: calcium entry signal: higher = stronger calcium signal after store depletion; entry to resting ratio: higher = more calcium entry relative to resting level; resting calcium signal: higher = higher resting calcium signal. Active means: 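Called when the plate z-score of the entry-to-rest ratio, mean of duplicates, falls below −3; wells with low overall dye signal (Fmax z below −2) or more than five off-targets excluded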. Calls: active = strongly reduced calcium entry; inactive = no strong reduction.
In all, the deposit lists about 23,000 reagents; below is an unselected part of those with a known target gene and a result. In the full data, 75 (0.33%) were called active. 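Raw plate signals without normalisation; calls rest on plate z-scores that were not deposited; ratio present for only 364 wells.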 A plus sign joins genes that one reagent is predicted to hit. Not stated in the record: the dose of the treatment.

no.	Target gene	dsRNA	calcium entry signal, replicate 1 (fluorescence units)	calcium entry signal, replicate 2 (fluorescence units)	entry to resting ratio	resting calcium signal, replicate 1 (fluorescence units)	resting calcium signal, replicate 2 (fluorescence units)	Call
1	ana3	DRSC06289	2.77e7	4.37e7		1.33e7	1.79e7	inactive
2	Top3alpha	DRSC03460	4.21e7	4.98e7		2.20e7	2.13e7	inactive
3	fw	DRSC20334	4.03e7	5.62e7		1.95e7	2.47e7	inactive
4	AGO2	DRSC09999	3.16e7	3.83e7		1.52e7	1.66e7	inactive
5	AGO2	DRSC10847	3.78e7	4.15e7		1.81e7	2.89e7	inactive
6	ssp3	DRSC02669	3.56e7	3.69e7		1.55e7	1.64e7	inactive
7	ssp3	DRSC02670	6.32e7	4.41e7		2.94e7	1.68e7	inactive
8	CG9192	DRSC08639	3.11e7	4.06e7		1.58e7	1.76e7	inactive
9	milt	DRSC00965	3.29e7	3.35e7		1.93e7	1.48e7	inactive
10	milt	DRSC00966	2.76e7	3.07e7		1.62e7	1.56e7	inactive
11	milt	DRSC02281	4.29e7			2.00e7		inactive
12	Spx	DRSC18720	1.79e7	2.39e7		1.33e7	1.73e7	inactive
13	CG14416	DRSC18639	3.12e7	5.65e7	2	1.56e7	2.10e7	inactive
14	CR33319	DRSC01826	3.51e7	6.33e7		1.48e7	2.52e7	inactive
15	CG13193	DRSC06318	4.03e7	3.80e7		2.07e7	1.80e7	inactive
16	Ddx1	DRSC11862	3.40e7	4.10e7		1.62e7	2.73e7	inactive
17	blw	DRSC04675	3.56e7	4.48e7		2.00e7	2.19e7	inactive
18	CG12898	DRSC06213	3.83e7	3.61e7		1.73e7	1.44e7	inactive
19	pit	DRSC17025	2.18e7	2.59e7		1.28e7	6.55e7	inactive
20	pit	DRSC22798	4.20e7	3.69e7		2.03e7	1.73e7	inactive
21	Rlb1	DRSC16826	3.32e7	2.81e7		1.77e7	1.63e7	inactive
22	CG30203	DRSC06690	2.84e7	3.35e7		1.59e7	1.59e7	inactive
23	CG12121	DRSC17816	2.66e7	3.31e7		1.38e7	1.70e7	inactive
24	CG14071	DRSC02374	3.53e7	4.31e7		1.74e7	1.92e7	inactive
25	ProtB	DRSC03373	3.42e7	2.12e7		1.48e7	9.86e6	inactive
26	MsR2	DRSC08336	3.03e7	4.02e7		1.51e7	1.87e7	inactive
27	MsR2	DRSC08337	3.00e7	4.55e7		1.45e7	1.87e7	inactive
28	MsR2	DRSC22440	4.20e7	3.67e7		2.09e7	1.63e7	inactive
29	CG31948	DRSC00740	4.06e7	5.16e7		1.83e7	2.13e7	inactive

Next part, starting with the last 3 of the part before.
no.	Target gene	dsRNA	calcium entry signal, replicate 1 (fluorescence units)	calcium entry signal, replicate 2 (fluorescence units)	entry to resting ratio	resting calcium signal, replicate 1 (fluorescence units)	resting calcium signal, replicate 2 (fluorescence units)	Call
27	MsR2	DRSC08337	3.00e7	4.55e7		1.45e7	1.87e7	inactive
28	MsR2	DRSC22440	4.20e7	3.67e7		2.09e7	1.63e7	inactive
29	CG31948	DRSC00740	4.06e7	5.16e7		1.83e7	2.13e7	inactive
30	P58IPK	DRSC16404	2.73e7	3.33e7		1.48e7	1.69e7	inactive
31	sno	DRSC20378	4.53e7	4.54e7		2.16e7	2.10e7	inactive
32	PDCD-5	DRSC09955	3.40e7	4.88e7		1.53e7	1.81e7	inactive
33	S-Lap7	DRSC06374	3.64e7	3.81e7		1.94e7	1.81e7	inactive
34	botv	DRSC05949	2.88e7	2.12e7		1.22e7	1.07e7	inactive
35	CG5882	DRSC15907	3.87e7	5.80e7		2.00e7	2.50e7	inactive
36	CG7506	DRSC10860	3.72e7	3.93e7		2.44e7	1.56e7	inactive
37	Slip1	DRSC17146	4.98e7	4.51e7		2.25e7	2.10e7	inactive
38	CG17258	DRSC00495	2.02e7	1.83e7		1.15e7	8.85e6	inactive
39	CG17258	DRSC22709	4.01e7	3.87e7		2.04e7	1.65e7	inactive
40	gammaTub23C	DRSC00820	3.12e7			1.71e7		inactive
41	CG32756	DRSC22505	4.29e7	3.42e7		2.36e7	1.41e7	inactive
42	CG32756	DRSC23271	4.86e7	3.57e7		2.51e7	1.48e7	inactive
43	Ten-m	DRSC11664	2.87e7	5.30e7		1.49e7	2.39e7	inactive
44	Ten-m	DRSC11882	2.90e7	4.44e7		1.50e7	2.05e7	inactive
45	RPA3	DRSC19658	3.33e7	3.56e7		1.97e7	2.29e7	inactive
46	CG12825	DRSC06174	2.84e7	4.12e7		1.40e7	1.91e7	inactive
47	lncRNA:CR9284	DRSC03899	1.92e7	3.74e7		9.85e6	1.44e7	inactive
48	lncRNA:CR9284	DRSC04536	3.77e7			1.95e7		inactive
49	CG8888	DRSC07294	3.55e7	2.98e7		1.48e7	1.46e7	inactive
50	CG8888	DRSC07295	1.88e7	3.66e7		1.03e7	1.43e7	inactive
51	CG7745	DRSC07037	2.89e7	2.64e7		1.34e7	1.28e7	inactive
52	CG7745	DRSC23103	4.84e7	3.97e7		2.29e7	1.65e7	inactive
53	GrlHz	DRSC04424	3.75e7			1.94e7		inactive
54	CG13455	DRSC10002	3.47e7	6.33e7		1.80e7	2.42e7	inactive
55	tin	DRSC17083	2.04e7	2.39e7		2.79e7	9.89e6	inactive
56	tin	DRSC22853	2.59e7	4.94e7		1.21e7	2.11e7	inactive
57	tin	DRSC23248	3.28e7	3.65e7		1.73e7	1.67e7	inactive
58	Tat	DRSC19602	2.76e7	3.43e7		1.35e7	1.38e7	inactive
59	MrgBP	DRSC06417	2.03e7	2.80e7		1.25e7	1.26e7	active
60	CASK	DRSC14588	3.59e7	4.08e7		5.46e7	2.12e7	inactive
61	CASK	DRSC16597	3.67e7	3.42e7		3.64e7	1.41e7	inactive
62	CASK	DRSC16598	2.25e7	3.47e7		1.36e7	5.48e7	inactive
63	CASK	DRSC21917	3.41e7	4.52e7		1.62e7	2.61e7	inactive
64	NTPase	DRSC00761	4.16e7			1.98e7		inactive
65	Est-Q	DRSC11835	2.59e7	3.89e7		1.25e7	2.59e7	inactive
66	Tailor	DRSC12526	4.56e7	3.09e7		2.32e7	1.64e7	inactive
67	Myo28B1	DRSC03375	3.21e7	3.32e7		1.79e7	1.63e7	inactive
68	CG7565	DRSC10881	5.06e7	3.91e7		3.25e7	1.57e7	inactive
69	Grl62a	DRSC07963	3.48e7	4.06e7		1.68e7	1.87e7	inactive
70	Or85c	DRSC16766	4.75e7	3.95e7		2.20e7	1.90e7	inactive
71	Or43a	DRSC07485	4.25e7	4.18e7		1.94e7	1.86e7	inactive
72	CG5157	DRSC10488	3.51e7	5.18e7		1.74e7	1.93e7	inactive
73	CG18662	DRSC02691	2.55e7	3.31e7		1.24e7	1.48e7	inactive
74	CG12075	DRSC17801	3.32e7	3.61e7		1.60e7	1.59e7	inactive
75	CG31910 + snoRNA:Me28S-G2743 (retired record)	DRSC00946	3.85e7	4.38e7		2.08e7	1.96e7	inactive
